Assay results: patent publication US9809843B1, “High throughput measurement of DNA base lesion repair capacity” (THE FLORIDA INTERNATIONAL UNIVERSITY BOARD OF TRUSTEES, priority 2016, dated 2017)
Some entries share one result that the patent states for a list of compounds. At least one structure is not confirmed: it was looked up by name or label, or the drawing left a doubt.

System: BER reconstituted by APE1, pol β, FEN1 and LIG I
Assay: Capacity of BER reconstituted by purified repair enzymes (fluorescence assay)
Format: biochemical
Details: FIG. 6

Question: Which “reduction of the capacity of BER reconstituted by APE1, pol β, FEN1 and LIG I” value does the source give for `NC1=NC(=O)N(C2CC(O)C(COP(=O)(O)O)O2)C(I)C1` (stereo not shown) [NSC-124854] here?
Answer: The value was 4 to 10 fold.
